These results are taken from publication PMC11109279, “Heliorhodopsin-mediated light-modulation of ABC transporter” (Nature Communications, 2024).

Chains of the proteins cited; added tags and fusions are not shown. Lines headed by an entry give the natural chain unless they say otherwise; changes in a name come on top.
UniProt A0A285VWG3: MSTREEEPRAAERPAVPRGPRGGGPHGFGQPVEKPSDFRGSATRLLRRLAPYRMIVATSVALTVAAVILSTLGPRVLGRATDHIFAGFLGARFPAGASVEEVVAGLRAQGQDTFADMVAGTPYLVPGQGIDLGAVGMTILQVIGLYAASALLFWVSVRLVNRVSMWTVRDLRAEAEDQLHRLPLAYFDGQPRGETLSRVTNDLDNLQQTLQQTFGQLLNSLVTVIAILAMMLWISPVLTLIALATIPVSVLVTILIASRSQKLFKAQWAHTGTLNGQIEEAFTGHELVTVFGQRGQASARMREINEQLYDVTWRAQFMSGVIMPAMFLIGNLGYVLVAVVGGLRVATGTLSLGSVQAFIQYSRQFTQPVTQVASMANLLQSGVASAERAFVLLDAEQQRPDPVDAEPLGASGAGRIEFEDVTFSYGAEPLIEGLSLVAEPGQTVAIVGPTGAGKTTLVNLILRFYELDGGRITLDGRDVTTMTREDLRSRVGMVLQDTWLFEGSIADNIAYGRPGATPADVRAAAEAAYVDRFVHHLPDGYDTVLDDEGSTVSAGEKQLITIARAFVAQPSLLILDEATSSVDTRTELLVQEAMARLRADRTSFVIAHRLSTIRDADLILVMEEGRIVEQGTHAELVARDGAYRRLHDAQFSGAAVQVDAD

This experiment has as its target OmrD (OmrD::his-tag) (Omithinimicrobium cerasi strain USBA17B2). Description: pull-down; His-tag pull-down: Ni2+-NTA agarose added to solubilized membrane proteins of E. coli co-expressing OmrD::his-tag and OmrE::HA-tag; 25 °C, 2 h; washed five times with buffer SD; western blotting with His- and HA-tag antibodies.

No constants are given. Whether binding was seen depends on the method and setting. Binding seen in cells or lysates may run through a third protein. Binding can be weak; no strength is given.

OmrE::HA-tag (from UniProt A0A285VWG3): the binding entry is reported as “binds”.
